No constants are given. Whether binding was seen depends on the method and setting. Binding seen in cells or lysates may run through a third protein. Some entries that bind do so weakly or less than the wild type. One block for each binder: values may come before it.
How the values were obtained:
Details in all cases: remark: other sources report otherwise
[1] = target: T1, Estrogen receptor beta, full length, as in the ER ββ FL CyOFP1-EV biosensor, Q92731; assay: FRET or BRET; live-cell FRET ratio imaging (FRET/ECFP or FRET/mTurquoise2) on a fluorescence microscope at 37 °C; both partners from one transfected biosensor plasmid; cells starved in 0.5% FBS for 9-12 h; before and after 17β-estradiol (1 nM-10 µM), 4-hydroxytamoxifen (10 µM), other ER ligands (1 µM) or ionomycin (1 µM) pretreatment; cell line of the main panels not stated (LentiX-293T, HEK293A, HeLa, MCF-7 …)
T1 chain: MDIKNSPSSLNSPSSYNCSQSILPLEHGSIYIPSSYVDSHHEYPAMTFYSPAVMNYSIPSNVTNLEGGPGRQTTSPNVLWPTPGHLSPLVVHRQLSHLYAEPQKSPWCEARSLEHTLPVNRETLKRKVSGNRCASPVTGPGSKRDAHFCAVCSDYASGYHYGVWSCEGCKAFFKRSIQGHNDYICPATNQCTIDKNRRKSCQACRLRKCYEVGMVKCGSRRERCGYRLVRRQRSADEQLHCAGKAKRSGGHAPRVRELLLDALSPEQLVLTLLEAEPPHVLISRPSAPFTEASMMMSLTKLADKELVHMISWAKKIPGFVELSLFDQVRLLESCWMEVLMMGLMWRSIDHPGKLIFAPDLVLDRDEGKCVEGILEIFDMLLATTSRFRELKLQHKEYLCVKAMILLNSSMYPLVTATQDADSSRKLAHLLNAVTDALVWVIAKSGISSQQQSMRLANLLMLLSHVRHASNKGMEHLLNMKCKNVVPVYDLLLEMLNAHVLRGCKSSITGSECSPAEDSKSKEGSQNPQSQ

[2] = target: T2, Estrogen receptor beta, full length, as in the ER ββ FL FRET biosensor, Q92731; assay: FRET or BRET; microplate reader FRET ratio of HEK293A cells transfected with the biosensor, 96-well plates, 37 °C; serial dilution of E2 from 10 µM to 1 pM, read at 1, 6 and 24 h; 72 estrogen analogs at 1 µM for the ER ββ LBD FRET biosensor
T2 chain: T1 chain

[3] = target: T2, Estrogen receptor beta, full length, as …; assay: FRET or BRET; live-cell FRET ratio imaging (FRET/ECFP or FRET/mTurquoise2) on a fluorescence microscope at 37 °C; both partners from one transfected biosensor plasmid; cells starved in 0.5% FBS for 9-12 h; before and after 17β-estradiol (1 nM-10 µM), 4-hydroxytamoxifen (10 µM), other ER ligands (1 µM) or ionomycin (1 µM) pretreatment; cell line of the main panels not stated (LentiX-293T, HEK293A, HeLa, MCF-7 …)

binding [1]: binds
B1: Estrogen receptor beta, full length, as in the ER ββ FL CyOFP1-EV biosensor, Q92731 1-530 (receptor)
chain: T1 chain

binding [2]: binds | binding [3]: binds
B2: Estrogen receptor beta, full length, as in the ER ββ FL FRET biosensor, Q92731 1-530 (receptor)
chain: T1 chain

Source: publication PMC11714219
